Experimental data published in publication doi:10.1101/2025.09.18.676964.
Results are given in words; binding and its absence hold for the method and conditions named. In cells and extracts the contact can be indirect. Here binding means that the protein was enriched with, or labelled near, the bait; the list need not be complete.

Chains of the proteins cited; added tags and fusions are not shown.
UniProt Q9RXK5: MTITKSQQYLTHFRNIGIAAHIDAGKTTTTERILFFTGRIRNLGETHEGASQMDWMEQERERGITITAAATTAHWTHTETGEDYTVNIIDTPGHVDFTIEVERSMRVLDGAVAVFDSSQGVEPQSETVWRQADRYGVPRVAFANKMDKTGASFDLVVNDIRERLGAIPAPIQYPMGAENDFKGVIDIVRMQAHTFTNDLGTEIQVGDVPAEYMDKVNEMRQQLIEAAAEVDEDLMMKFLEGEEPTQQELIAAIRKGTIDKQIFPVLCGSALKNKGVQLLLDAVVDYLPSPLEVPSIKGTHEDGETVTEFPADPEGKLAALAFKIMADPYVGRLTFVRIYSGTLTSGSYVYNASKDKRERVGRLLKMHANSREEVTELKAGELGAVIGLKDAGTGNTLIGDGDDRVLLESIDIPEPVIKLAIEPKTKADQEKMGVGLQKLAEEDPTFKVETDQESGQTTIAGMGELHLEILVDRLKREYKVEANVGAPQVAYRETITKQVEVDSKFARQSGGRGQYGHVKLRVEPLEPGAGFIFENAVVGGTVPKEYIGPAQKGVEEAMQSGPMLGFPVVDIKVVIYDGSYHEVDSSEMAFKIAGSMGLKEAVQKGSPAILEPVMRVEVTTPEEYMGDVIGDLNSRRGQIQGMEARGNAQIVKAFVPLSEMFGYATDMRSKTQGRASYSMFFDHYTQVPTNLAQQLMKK

Biological target: KhpB-3xFLAG (Deinococcus radiodurans) (UniProt Q9RXR1)
Test: affinity purification with mass spectrometry

Row | binding | Molecule
1 | binds | elongation factor G (from UniProt Q9RXK5 1-698)
2 | binds | Rsr (protein, UniProt Q9RUW8 1-531) MKNLLRAINPLNRPQTERLDERQVRNNAGGFVYTVSDESRLTRFLVLGVDGGTFYASAQKHTVQATDFVRELVQRDAALALRVTLDVVRGQRAPKADPALLVLALIAKTAPNAADRKAAWDALPEVARTGTMLLHFLAFADALGGWGRLTRRGVANVYETADVDKLALWAVKYKARDGWSQADALRKAHPKTDDAARNAVLKFMVDGVLPKVDSPALRVIEGHLKATEAQTDAAAAALMQEYRLPLEAVPTHVRGAEVYRAAMQTNGLTWLLRNLGNLGRVGVLTPNDSATVQAVIERLTDPAALKRGRIHPLDALKARLVYAQGQGVRGKGTWLPVPRVVDALEEAFTLAFGNVQPANTRHLLALDVSGSMTCGDVAGVPGLTPNMAAAAMSLIALRTEPDALTMGFAEQFRPLGITPRDTLESAMQKAQSMSFGGTDCAQPILWAAQERLDVDTFVVYTDNETWAGQVHPTVALDQYAQKMGRAPKLIVVGLTATEFSIADPQRRDMLDVVGFDAAAPNVMTAFARGEV
